Data as given in PubChem BioAssay AID1259405 (NCATS, 2018).

- Aim: 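Silenced genes that increase secreted GFP made by CHO cells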 (primary screen)
- Cell system: Chinese hamster CHO-K1 ovary cells with stable secreted eGFP expression
- Reagents: single siRNA against mouse genes, 0.8 pmol siRNA per well (2 µl of 400 nM stock)
- Time to read-out: 3 days
- Measured: 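Percent of the per-plate non-targeting control median for intracellular GFP per well by laser scanning cytometry and for cell viability by ATP luminescence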
- Reading the numbers: GFP, % of control: higher = more GFP per well, higher productivity; viability (ATP), % of control: higher = more viable cells (more ATP)
- Call rule: 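Called active when intracellular GFP, relative to negative control, is at or above 120%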
Here is one part, drawn at random, of about 50,000 deposited reagents. In the full data, about 4,000 (8%) got an active call. 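Mouse siRNA library applied to hamster cells; one well for each siRNA.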

no.	gene symbol	PubChem SID	GFP, % of control	viability (ATP), % of control	activity call
1	Abcc4 (ATP-binding cassette, sub-family C member 4)	SID363574617	114	101	inactive
2	Abcc4 (ATP-binding cassette, sub-family C member 4)	SID363575673	56.5	65.2	inactive
3	Abcc4 (ATP-binding cassette, sub-family C member 4)	SID363580249	44.6	73.2	inactive
4	Naaa (N-acylethanolamine acid amidase)	SID363569025	110	101	inactive
5	Naaa (N-acylethanolamine acid amidase)	SID363583457	72.5	81.3	inactive
6	Sfrp1 (secreted frizzled-related protein 1)	SID363541592	38.4	44.8	inactive
7	Sfrp1 (secreted frizzled-related protein 1)	SID363553184	56.6	53.1	inactive
8	Sfrp1 (secreted frizzled-related protein 1)	SID363566508	72.5	60.7	inactive
9	H2ac8 (H2A clustered histone 8)	SID363546071	111	88	inactive
10	H2ac8 (H2A clustered histone 8)	SID363549584	96.1	96.2	inactive
11	H2ac8 (H2A clustered histone 8)	SID363563390	62.8	72.3	inactive
12	Ncapd3 (non-SMC condensin II complex, subunit D3)	SID363546053	69.8	76.6	inactive
13	Ncapd3 (non-SMC condensin II complex, subunit D3)	SID363549566	65.3	65.6	inactive
14	Ncapd3 (non-SMC condensin II complex, subunit D3)	SID363563372	75.1	78.3	inactive
15	Cd226 (CD226 antigen)	SID363550223	101	110	inactive
16	Cd226 (CD226 antigen)	SID363564732	70.3	61.8	inactive
17	Cd226 (CD226 antigen)	SID363588277	100	113	inactive
18	Or13p10 (olfactory receptor family 13 subfamily P member 10)	SID363544822	136	84.4	active
19	Or13p10 (olfactory receptor family 13 subfamily P member 10)	SID363551150	59.1	70.6	inactive
20	Or13p10 (olfactory receptor family 13 subfamily P member 10)	SID363557699	54.4	55.1	inactive
21	Serac1 (serine active site containing 1)	SID363546074	93	80.5	inactive
22	Serac1 (serine active site containing 1)	SID363549587	65.2	64.9	inactive
23	Serac1 (serine active site containing 1)	SID363563393	24.7	57.8	inactive
24	Rnf138 (ring finger protein 138)	SID363573546	59.2	70.5	inactive
25	Rnf138 (ring finger protein 138)	SID363581290	61.5	53.4	inactive
26	Rnf138 (ring finger protein 138)	SID363583754	80.6	87.3	inactive
27	Gmds (GDP-mannose 4, 6-dehydratase)	SID363569049	114	108	inactive
28	Gmds (GDP-mannose 4, 6-dehydratase)	SID363583481	84.8	83.2	inactive
29	Bpifa1 (BPI fold containing family A, member 1)	SID363574825	47.1	70.6	inactive
30	Bpifa1 (BPI fold containing family A, member 1)	SID363575881	64.2	75.4	inactive
31	Bpifa1 (BPI fold containing family A, member 1)	SID363580457	109	104	inactive
32	Tusc1 (tumor suppressor candidate 1)	SID363556747	80	77.3	inactive
33	Tusc1 (tumor suppressor candidate 1)	SID363563651	51.3	26	inactive
34	Tusc1 (tumor suppressor candidate 1)	SID363587197	121	82.4	active
35	Azgp1 (alpha-2-glycoprotein 1, zinc)	SID363546651	94.6	103	inactive
36	Azgp1 (alpha-2-glycoprotein 1, zinc)	SID363548407	63.9	67.6	inactive
37	Azgp1 (alpha-2-glycoprotein 1, zinc)	SID363560585	69.3	79.7	inactive
38	Cxcl12 (C-X-C motif chemokine ligand 12)	SID363550268	77.8	99.3	inactive
39	Cxcl12 (C-X-C motif chemokine ligand 12)	SID363564777	33.2	48.8	inactive
40	Cxcl12 (C-X-C motif chemokine ligand 12)	SID363588322	118	100	inactive
41	Zfp810 (zinc finger protein 810)	SID363555180	55	50.3	inactive
42	Zfp810 (zinc finger protein 810)	SID363563841	89.1	70.3	inactive
43	Zfp810 (zinc finger protein 810)	SID363587387	92	87.8	inactive
44	D17H6S53E (DNA segment, Chr 17, human D6S53E)	SID363539739	38.2	80.2	inactive
45	D17H6S53E (DNA segment, Chr 17, human D6S53E)	SID363561040	87.9	76.1	inactive
46	D17H6S53E (DNA segment, Chr 17, human D6S53E)	SID363565130	49.4	29.5	inactive
47	Map3k21 (mitogen-activated protein kinase kinase kinase 21)	SID363547353	43.2	91.2	inactive
48	Map3k21 (mitogen-activated protein kinase kinase kinase 21)	SID363558122	81.5	66.8	inactive
49	Map3k21 (mitogen-activated protein kinase kinase kinase 21)	SID363559880	85.1	74.6	inactive
50	Pdhb (pyruvate dehydrogenase (lipoamide) beta)	SID363575212	53.4	90.6	inactive
51	Pdhb (pyruvate dehydrogenase (lipoamide) beta)	SID363580844	32.7	56.9	inactive
52	Pdhb (pyruvate dehydrogenase (lipoamide) beta)	SID363582956	73.7	81.5	inactive
53	Lrif1 (ligand dependent nuclear receptor interacting factor 1)	SID363552434	104	108	inactive
54	Lrif1 (ligand dependent nuclear receptor interacting factor 1)	SID363585570	71.6	101	inactive
55	Lrif1 (ligand dependent nuclear receptor interacting factor 1)	SID363585921	129	147	active
56	Grm3 (glutamate receptor, metabotropic 3)	SID363571366	88.9	88	inactive
57	Grm3 (glutamate receptor, metabotropic 3)	SID363571718	25.1	33.3	inactive
58	Grm3 (glutamate receptor, metabotropic 3)	SID363572070	69.5	74.4	inactive

Already shown: entries from further up.
no.	gene symbol	PubChem SID	GFP, % of control	viability (ATP), % of control	activity call
2	Abcc4 (ATP-binding cassette, sub-family C member 4)	SID363575673	56.5	65.2	inactive
3	Abcc4 (ATP-binding cassette, sub-family C member 4)	SID363580249	44.6	73.2	inactive
4	Naaa (N-acylethanolamine acid amidase)	SID363569025	110	101	inactive
5	Naaa (N-acylethanolamine acid amidase)	SID363583457	72.5	81.3	inactive
6	Sfrp1 (secreted frizzled-related protein 1)	SID363541592	38.4	44.8	inactive
7	Sfrp1 (secreted frizzled-related protein 1)	SID363553184	56.6	53.1	inactive
